# Taken from: PubChem BioAssay AID1259254 (NCATS, 2017)
# Test: 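Gene knock-downs that lead to re-replication, shown by excess G2 DNA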 (primary screen)
# Cells: human HCT116 colorectal cancer cells
# Reagents: single siRNA against human genes
# Duration: 3 days
# Detection: 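Imaged Hoechst DNA stain sorts each cell into a cycle phase by DNA amount; per plate, G2 fraction set to 0% for non-targeting and 100% for GMNN siRNA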
# Reading the numbers: G2 robust z-score and G2 cells, % of GMNN control: higher = more G2 cells, more excess DNA replication; raw share of cells in G2: higher = larger share of cells with G2 DNA content
# Hit rule: 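An siRNA counts as active if its G2 robust z-score lies at least 5 MADs above the screen median; here such calls match roughly 38% of GMNN control or more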
# The deposit covers about 59,000 reagents; shown is a random part of them. In the full data, about 1,550 (2.6%) were called active. 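G2 share is only a proxy for re-replication; each gene was hit by three separate siRNAs, and active genes were retested.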 Raw values vary from plate to plate and are shown uncorrected. Reagents against one gene are numbered here. The record does not give: the amount of reagent.
Target gene,reagent,G2 robust z-score,"G2 cells, % of GMNN control",raw share of cells in G2 (%),outcome
EDEM1,1,0.581,7.05,5.87,inactive
EDEM1,2,-0.467,-0.318,5.85,inactive
EDEM1,3,0.685,7.78,6.6,inactive
PDGFB,1,5.83,44,23.7,active
PDGFB,2,0.455,6.17,6.66,inactive
PDGFB,3,0.257,4.77,5.08,inactive
ARID4A,1,-0.4,0.152,3.52,inactive
ARID4A,2,0.661,7.62,8.41,inactive
ARID4A,3,0.812,8.68,6.26,inactive
SLX4,1,1.04,10.3,7.53,inactive
SLX4,2,-0.848,-3,2.57,inactive
SLX4,3,-0.774,-2.48,1.65,inactive
ZNF341,1,0.084,3.56,4.05,inactive
ZNF341,2,0.302,5.1,8.21,inactive
ZNF341,3,0.219,4.51,5.05,inactive
CHCHD4,1,0.324,5.24,4.48,inactive
CHCHD4,2,3.41,26.9,14.3,inactive
CHCHD4,3,-0.00271,2.95,4.04,inactive
IQCN,1,2.34,19.4,12.5,inactive
IQCN,2,0.664,7.64,7.64,inactive
IQCN,3,-0.725,-2.14,1.79,inactive
OR10G3,1,-0.503,-0.569,3.1,inactive
OR10G3,2,-0.331,0.64,4.65,inactive
OR10G3,3,3.61,28.4,16.2,inactive
LOC145845,1,1.19,11.3,7.62,inactive
LOC145845,2,0.265,4.83,4.4,inactive
LOC145845,3,-0.564,-1,2.72,inactive
FZD3,1,-0.815,-2.77,4.85,inactive
FZD3,2,0.266,4.84,6.21,inactive
FZD3,3,-0.542,-0.849,3.01,inactive
UBL3,1,1.69,14.9,11.3,inactive
UBL3,2,0.119,3.8,5.72,inactive
UBL3,3,2.96,23.8,12,inactive
PKD2,1,3.28,26,14.8,inactive
PKD2,2,2.41,19.9,11.5,inactive
PKD2,3,-0.341,0.566,4.6,inactive
PPM1A,1,1.74,15.2,9.75,inactive
PPM1A,2,0.000747,2.97,5.2,inactive
PPM1A,3,0.999,10,6.51,inactive
NCAPD3,1,-0.202,1.55,4.99,inactive
NCAPD3,2,3.06,24.5,14.5,inactive
NCAPD3,3,4.13,32,14.5,inactive
MRPL57,1,-0.523,-0.714,4.27,inactive
MRPL57,2,-0.189,1.64,5.34,inactive
MRPL57,3,1.13,10.9,5.58,inactive
SPEF1,1,0.701,7.9,7.38,inactive
SPEF1,2,-0.612,-1.34,3.36,inactive
SPEF1,3,-0.642,-1.55,2.76,inactive

Active calls, of those listed so far:
Target gene,reagent,G2 robust z-score,"G2 cells, % of GMNN control",raw share of cells in G2 (%),outcome
PDGFB,1,5.83,44,23.7,active
